Measurements reported in PubChem BioAssay AID1259308 (NCATS, 2017).
Here is a random part of about 59,000 deposited reagents. About 1,510 of them (2.6%) count as active. 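Calls use total luciferase alone and ignore viability, so some active siRNAs may act by altering cell number.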 Reagents against one gene are numbered here. Not all columns of the deposit are shown.

Aim: 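Candidate targets for better recombinant protein yield in mammalian cells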 (primary screen)
System: human HEK293 embryonic kidney cells stably expressing firefly luciferase (HEK-CMV-Luc2-Hygro)
Reagents: single siRNA against human genes, 0.8 pmol siRNA per well
Duration: 72 h
Measured: 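Luciferase light (ONE-Glo) measured on one replicate plate set and viability (CellTiter-Glo) on the other, scaled to a negative control siRNA, with robust z-scores and luciferase per cell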
Direction: total luciferase, z-score: higher = more reporter protein produced
Rule for the call: 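Active when the median/MAD z-score for overall luciferase is greater than 3; a gene was taken forward for validation with new siRNAs if at least two of its three siRNAs passed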
Calls: active = raised luciferase; inactive = no rise

With knock-down of PIGZ #1 the results were total luciferase, z-score 0.456; inactive. With knock-down of PIGZ #2, the screen gave total luciferase, z-score 2.97; inactive. After knock-down of PIGZ #3, the record shows total luciferase, z-score -0.618; inactive. Depletion of PITX1 #1 resulted in: total luciferase, z-score 1.47; inactive. Knock-down of PITX1 #2 gave: total luciferase, z-score 0.968; inactive. PITX1 #3 gave total luciferase, z-score -1.49; inactive.

Against MAML3 #1, the values are total luciferase, z-score 0.545; inactive. Knock-down of MAML3 #2 resulted in: total luciferase, z-score 0.235; inactive. After knock-down of MAML3 #3 the results were total luciferase, z-score 0.51; inactive. With knock-down of CCDC50 #1, the record shows total luciferase, z-score 0.499; inactive. Silencing of CCDC50 #2 came out at: total luciferase, z-score -2.05; inactive. Knock-down of CCDC50 #3 resulted in: total luciferase, z-score 0.786; inactive.
